# According to article PMC5807360:
# Chains of the proteins cited; added tags and fusions are not shown. Residues count along the entry.
# UniProt O48849, residues 23-890: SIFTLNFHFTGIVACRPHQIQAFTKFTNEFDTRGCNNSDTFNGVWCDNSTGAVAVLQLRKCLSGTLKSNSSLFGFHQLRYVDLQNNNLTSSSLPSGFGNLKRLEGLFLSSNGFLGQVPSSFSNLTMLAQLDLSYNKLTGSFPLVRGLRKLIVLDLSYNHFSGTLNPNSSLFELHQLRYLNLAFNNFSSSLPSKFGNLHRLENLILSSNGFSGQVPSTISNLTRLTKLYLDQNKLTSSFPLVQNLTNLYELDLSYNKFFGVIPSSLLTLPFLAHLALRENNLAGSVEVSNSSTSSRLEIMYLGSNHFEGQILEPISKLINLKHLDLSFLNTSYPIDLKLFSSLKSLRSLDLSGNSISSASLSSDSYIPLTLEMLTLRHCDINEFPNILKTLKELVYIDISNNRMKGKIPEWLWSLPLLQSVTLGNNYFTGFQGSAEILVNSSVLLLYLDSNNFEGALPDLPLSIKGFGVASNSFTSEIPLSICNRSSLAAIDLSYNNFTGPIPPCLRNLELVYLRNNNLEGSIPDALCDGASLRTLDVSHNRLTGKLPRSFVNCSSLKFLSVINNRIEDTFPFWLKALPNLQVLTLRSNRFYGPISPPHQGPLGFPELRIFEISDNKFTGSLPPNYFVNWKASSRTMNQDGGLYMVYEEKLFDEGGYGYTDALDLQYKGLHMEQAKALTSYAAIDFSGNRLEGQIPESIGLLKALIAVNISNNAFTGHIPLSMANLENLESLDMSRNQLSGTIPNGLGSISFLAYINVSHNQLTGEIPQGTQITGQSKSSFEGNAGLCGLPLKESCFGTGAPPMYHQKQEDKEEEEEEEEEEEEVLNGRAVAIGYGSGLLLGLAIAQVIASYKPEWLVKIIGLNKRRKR
# These are yes or no findings as the source states them, for the method shown. In cells and extracts the contact can be indirect.
# Target: RLP23-GFP (Arabidopsis RLP23, GFP-tagged) (Arabidopsis thaliana) (UniProt O48849)
# Test: co-IP; proteins co-expressed in N. benthamiana leaves, isolated at 2 dai; total protein extract (150-200 mM NaCl, 50 mM Tris-HCl pH 7.5, 10 mM EDTA, 1.0% NP-40); GFP-trap A beads, 4 °C, 2 h; blots with anti-GFP and anti-HA
substance,measurement,value
"XEG1-HA (Phytophthora sojae glycoside hydrolase 12 protein XEG1, C-terminal HA tag) (from UniProt G4ZHR2 20-241)",binding,no binding
